Results as given in patent publication US20160033523A1.
Results are given in words; binding and its absence hold for the method and conditions named. Some entries that bind do so weakly or less than the wild type.

Amino acid sequences for entries named in this document (tags omitted). A change or cut given only in a name is not applied to a line headed by its entry.
UniProt Q28522: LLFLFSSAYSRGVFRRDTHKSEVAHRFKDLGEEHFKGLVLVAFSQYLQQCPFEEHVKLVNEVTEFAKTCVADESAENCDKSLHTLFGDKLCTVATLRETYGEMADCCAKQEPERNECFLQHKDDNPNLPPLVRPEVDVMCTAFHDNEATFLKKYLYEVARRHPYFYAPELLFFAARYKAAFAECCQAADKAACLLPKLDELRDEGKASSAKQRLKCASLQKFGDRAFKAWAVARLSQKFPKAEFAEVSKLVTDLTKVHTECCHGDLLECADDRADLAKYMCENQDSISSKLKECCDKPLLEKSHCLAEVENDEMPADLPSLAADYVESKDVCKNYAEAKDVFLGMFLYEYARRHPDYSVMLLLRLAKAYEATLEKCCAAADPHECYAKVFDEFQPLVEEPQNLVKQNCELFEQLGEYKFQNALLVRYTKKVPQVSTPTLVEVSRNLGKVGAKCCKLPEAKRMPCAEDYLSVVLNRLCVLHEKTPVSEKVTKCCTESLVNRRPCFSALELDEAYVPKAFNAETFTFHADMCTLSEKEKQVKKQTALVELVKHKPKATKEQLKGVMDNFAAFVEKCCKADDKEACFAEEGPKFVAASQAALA

Legend:
[1] = target: Soluble rhesus monkey FcRn, GST-tagged, with human beta2-microglobulin (rhesus monkey; Schistosoma japonicum; human) [GST: P08515]; experiment: SPR (Biacore), albumin 10-0.3 µM injected over immobilized srmFcRn, pH 6.0
[2] = target: Soluble dog FcRn, GST-tagged, with human beta2-microglobulin (dog; Schistosoma japonicum; human) [GST: P08515]; experiment: SPR (Biacore), serial dilutions of albumin injected over immobilized soluble dog FcRn, pH 6.0
[3] = target: Soluble pig FcRn, GST-tagged, with human beta2-microglobulin (Example 2) (pig; Schistosoma japonicum; human) [GST: P08515]; experiment: SPR (Biacore), serial dilutions of albumin injected over immobilized soluble pig FcRn, pH 6.0

Measured: binding

Wild type rhesus monkey serum albumin (from UniProt Q28522 17-600) (ligand)
binds: all assays above
